Values from PubChem BioAssay AID1224826 (NIAID, 2016).

Screen: 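Knock-downs that raise or lower Tnf reporter signal after endotoxin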 (primary screen)
Cell system: RAW264.7 G9 macrophages from mouse bearing reporters for p65 (GFP) and the Tnf promoter (mCherry)
Reagents: siRNA pool against mouse genes, 100 nM
Timing: 16 h of LPS stimulation, after 2 days of siRNA transfection
Treatment: bacterial lipopolysaccharide (Salmonella minnesota R595), 10 ng/ml
Measurement: 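Imaged Tnf reporter mCherry in nuclei, minus background, normalised per plate to the median and expressed as robust z-scores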
Scale: Tnf reporter robust z-score: higher = stronger Tnf promoter reporter signal after LPS; Tnf reporter intensity: higher = stronger Tnf promoter reporter signal
Rule for the call: 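Called active when robust z-score is at most -1.3, matching the median of the Tlr4 knock-down control, or over 3; control wells and wells with under 50 cells never active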
Calls: active = Tnf reporter clearly lowered or raised; inactive = no clear change in Tnf reporter
This is an unselected part of about 17,000 reagents. About 1,110 of them (6.6%) count as active. 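Active means lowered or raised reporter signal; replicate intensities are raw and not normalised per plate.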 The numbers tell different reagents against one gene apart. No sequences are given here.

| Tnf reporter robust z-score | fewer than 50 cells in well | Tnf reporter intensity, replicate 1 | Tnf reporter intensity, replicate 2 | Outcome | gene symbol | reagent no. |
| --- | --- | --- | --- | --- | --- | --- |
| -0.07 | enough cells in well | 107 | 146 | inactive | Qki | 1 |
| 0.71 | enough cells in well | 210 | 234 | inactive | Trub2 | 1 |
| -0.33 | enough cells in well | 120 | 103 | inactive | Or6c33 | 1 |
| 0.03 | enough cells in well | 241 | 227 | inactive | Ndufs1 | 1 |
| -0.13 | enough cells in well | 247 | 131 | inactive | Krt5 | 1 |
| -1.09 | enough cells in well | 128 | 97.9 | inactive | Pip4k2c | 1 |
| – | fewer than 50 cells per well; well left out of calls | 232 | 84.7 | inactive | Romo1 | 1 |
| -0.11 | enough cells in well | 271 | 33.6 | inactive | Zfp946 | 1 |
| 0.52 | enough cells in well | 354 | 230 | inactive | Sult1b1 | 1 |
| -0.1 | enough cells in well | 242 | 201 | inactive | Fbxo6 | 1 |
| -0.72 | enough cells in well | 177 | 94.2 | inactive | D330050P16RIK | 1 |
| 0.72 | enough cells in well | 214 | 188 | inactive | Mon1b | 1 |
| 0.1 | enough cells in well | 339 | 199 | inactive | Rac3 | 1 |
| -1.1 | enough cells in well | 56.8 | 78.3 | inactive | Zfp46 | 1 |
| 1.41 | enough cells in well | 336 | 155 | inactive | Mrgpra6 | 1 |
| – | fewer than 50 cells per well; well left out of calls | 228 | 200 | inactive | Pramel37 | 1 |
| 0.35 | enough cells in well | 179 | 149 | inactive | Reep5 | 1 |
| 3.18 | enough cells in well | 205 | 215 | active | St3gal6 | 1 |
| 1.31 | enough cells in well | 147 | 254 | inactive | Osbpl9 | 1 |
| – | fewer than 50 cells per well; well left out of calls | 98.5 | 43.6 | inactive | Uts2b | 1 |
| – | fewer than 50 cells per well; well left out of calls | 161 | 132 | inactive | Pkib | 1 |
| -0.82 | enough cells in well | 159 | 67.5 | inactive | Eif4a2 | 1 |
| -0.14 | enough cells in well | 181 | 169 | inactive | Tmem154 | 1 |
| 0.06 | enough cells in well | 183 | 143 | inactive | Jph1 | 1 |
| 2.56 | enough cells in well | 363 | 242 | inactive | Mdfic | 1 |
| -0.27 | enough cells in well | 209 | 143 | inactive | Kif3c | 1 |
| – | fewer than 50 cells per well; well left out of calls | 92.8 | 87.5 | inactive | Keap1 | 1 |
| -0.39 | enough cells in well | 157 | 105 | inactive | Or1e1f | 1 |
| -0.05 | enough cells in well | 197 | 123 | inactive | Kctd2 | 1 |
| -0.19 | enough cells in well | 193 | 175 | inactive | Gpn2 | 1 |
| 0.15 | enough cells in well | 227 | 187 | inactive | Tmem266 | 1 |
| -0.33 | enough cells in well | 186 | 224 | inactive | Esr1 | 1 |
| -0.44 | enough cells in well | 215 | 149 | inactive | Glg1 | 1 |
| 0.95 | enough cells in well | 467 | 231 | inactive | Rnmt | 1 |
| – | fewer than 50 cells per well; well left out of calls | 99.4 | 33.3 | inactive | Endod1 | 1 |
| 0.65 | enough cells in well | 315 | 284 | inactive | Gcnt2 | 1 |
| 2.86 | enough cells in well | 425 | 279 | inactive | Mertk | 1 |
| 0 | enough cells in well | 162 | 187 | inactive | Fgfr2 | 1 |
| – | fewer than 50 cells per well; well left out of calls | 161 | 55.5 | inactive | Ift70a1 | 1 |
| – | fewer than 50 cells per well; well left out of calls | 85.6 | 102 | inactive | Slc37a4 | 1 |
| 3.05 | enough cells in well | 273 | 229 | active | Zfp352 | 1 |
| 0.07 | enough cells in well | 174 | 185 | inactive | Ccl4 | 1 |
| -1.3 | enough cells in well | 50.8 | 63.6 | active | Sh3yl1 | 1 |
| 2.09 | enough cells in well | 321 | 229 | inactive | Jam3 | 1 |
| -0.08 | enough cells in well | 158 | 201 | inactive | Spin4 | 1 |
| 0.36 | enough cells in well | 143 | 135 | inactive | Dcaf12l1 | 1 |
| 0.19 | enough cells in well | 266 | 131 | inactive | Tnfsf11 | 1 |
| 0.07 | enough cells in well | 164 | 193 | inactive | Chrm1 | 1 |
| -0.04 | enough cells in well | 245 | 206 | inactive | Fbxo2 | 1 |
| -0.82 | enough cells in well | 157 | 68.5 | inactive | Or2ak7 | 1 |
| -0.81 | enough cells in well | 242 | 107 | inactive | Ndrg1 | 1 |
| -0.94 | enough cells in well | 213 | 40.1 | inactive | Ndrg1 | 2 |
| 2.65 | enough cells in well | 379 | 201 | inactive | E230012M21 | 1 |
| 0.74 | enough cells in well | 259 | 321 | inactive | Tuba4a | 1 |
| 0.95 | enough cells in well | 195 | 208 | inactive | B3gnt3 | 1 |
| 0.68 | enough cells in well | 217 | 196 | inactive | Apob | 1 |
| -0.34 | enough cells in well | 198 | 211 | inactive | Mllt1 | 1 |
| 1.59 | enough cells in well | 198 | 195 | inactive | Scml2 | 1 |

Reagents listed so far marked active (3):
| Tnf reporter robust z-score | fewer than 50 cells in well | Tnf reporter intensity, replicate 1 | Tnf reporter intensity, replicate 2 | Outcome | gene symbol | reagent no. |
| --- | --- | --- | --- | --- | --- | --- |
| 3.18 | enough cells in well | 205 | 215 | active | St3gal6 | 1 |
| 3.05 | enough cells in well | 273 | 229 | active | Zfp352 | 1 |
| -1.3 | enough cells in well | 50.8 | 63.6 | active | Sh3yl1 | 1 |
